Binding data for one substance are collected here from paper PMC8400980.

Protein sequences, listed by entry. Tags and fused reporters are not part of them.
UniProt Q2GI62: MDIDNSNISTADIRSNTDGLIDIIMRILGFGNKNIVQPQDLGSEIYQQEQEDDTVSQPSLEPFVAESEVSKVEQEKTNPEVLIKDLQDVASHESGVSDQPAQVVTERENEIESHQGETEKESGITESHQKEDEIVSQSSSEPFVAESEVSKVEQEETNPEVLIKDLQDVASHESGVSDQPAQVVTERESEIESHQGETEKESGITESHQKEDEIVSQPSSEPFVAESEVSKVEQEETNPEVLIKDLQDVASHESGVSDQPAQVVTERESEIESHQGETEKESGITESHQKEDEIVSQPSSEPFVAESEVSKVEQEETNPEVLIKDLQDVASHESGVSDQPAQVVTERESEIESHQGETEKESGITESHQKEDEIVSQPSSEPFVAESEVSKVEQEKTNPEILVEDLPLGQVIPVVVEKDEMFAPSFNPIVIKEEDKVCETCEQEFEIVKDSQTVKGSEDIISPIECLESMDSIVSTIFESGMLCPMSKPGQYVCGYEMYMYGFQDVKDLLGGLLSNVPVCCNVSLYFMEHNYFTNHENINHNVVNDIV
UniProt P06733: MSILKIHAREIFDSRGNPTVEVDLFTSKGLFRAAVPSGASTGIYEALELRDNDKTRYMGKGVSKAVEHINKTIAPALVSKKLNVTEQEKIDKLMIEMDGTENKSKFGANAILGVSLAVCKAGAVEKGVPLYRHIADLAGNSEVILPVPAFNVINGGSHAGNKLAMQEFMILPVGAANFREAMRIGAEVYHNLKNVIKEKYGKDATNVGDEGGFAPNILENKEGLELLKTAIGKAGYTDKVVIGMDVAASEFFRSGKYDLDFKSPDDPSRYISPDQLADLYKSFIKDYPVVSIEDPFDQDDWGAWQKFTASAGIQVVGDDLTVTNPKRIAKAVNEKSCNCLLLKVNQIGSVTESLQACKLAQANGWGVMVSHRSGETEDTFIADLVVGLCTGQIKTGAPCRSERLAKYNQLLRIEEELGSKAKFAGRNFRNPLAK

These are yes or no findings as the source states them, for the method shown. In cells and extracts the contact can be indirect. Some binding calls cover weakened binding; strength is not graded here.

This test addresses Ehrlichia chaffeensis TRP120 (native, in infected THP-1 cells) (Ehrlichia chaffeensis (Arkansas strain)) (UniProt Q2GI62). As to the kind of experiment: co-IP.

Consider “Alpha-enolase (ENO-1), endogenous in THP-1 cells (from UniProt P06733 1-434)”, for which the binding entry was “binds”.
